The exact form of at least one protein or probe is not confirmed. Results from cells or extracts need not show a direct contact. Protein sequences can lack the tags named with them.
Target: T1, NRF-1 in MCF-7 nuclear extract (UniProt Q16656)
T1 sequence (looked up, limits assumed): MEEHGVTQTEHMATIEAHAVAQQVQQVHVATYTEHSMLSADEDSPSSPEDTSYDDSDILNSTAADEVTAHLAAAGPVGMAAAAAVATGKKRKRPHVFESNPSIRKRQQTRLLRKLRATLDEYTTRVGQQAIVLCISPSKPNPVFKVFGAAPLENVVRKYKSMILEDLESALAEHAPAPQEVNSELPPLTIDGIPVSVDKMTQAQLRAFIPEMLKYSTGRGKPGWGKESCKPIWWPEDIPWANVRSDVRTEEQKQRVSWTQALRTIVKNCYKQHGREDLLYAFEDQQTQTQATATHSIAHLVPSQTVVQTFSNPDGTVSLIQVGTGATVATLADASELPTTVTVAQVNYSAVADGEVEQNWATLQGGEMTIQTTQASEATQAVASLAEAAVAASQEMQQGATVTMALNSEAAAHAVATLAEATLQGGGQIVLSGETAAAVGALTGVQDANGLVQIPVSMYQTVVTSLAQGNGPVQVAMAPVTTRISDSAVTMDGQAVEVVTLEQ
Assay: EMSA supershift
Conditions: anti-NRF-1; 25 mM HEPES pH 7.6, 5 mM MgCl2, 34 mM KCl, 50 ug/mL poly dI:dC, 0.5 mg/mL BSA, on ice 15 min; 6% acrylamide 0.25x TBE gel; protein in an extract; label: 32P

Sequence | binding result
CTGTCGCGCAGGCGCCGGGC (double strand) [mT4] | binds
CTGCTGCGCAGGCGCCGGGC (double strand) [mT5] | binds

From article PMC3127848, “Decreased expression of BRCA1 in SK-BR-3 cells is the result of aberrant activation of the GABP Beta promoter by an NRF-1-containing complex”
